According to the supplement of paper PMC11150407:
Out of some 3,000 compounds screened, about 45 (2%) showed an effect of 50% or more. Some of the results follow.

test system: MOLM1 and UCSD/AML1 (averaged); assay: cell viability relative to DMSO control (POC); higher = less growth inhibition; conditions: 1 µM; 72 h
Description: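 Primary viability screen in the 3q26 EVI1-high AML cell lines MOLM1 and UCSD/AML1, compounds at 1 uM for 72 h. ATP CellTiter-Glo read-out given as percent viable over DMSO control (POC), averaged over duplicates. This mapping covers the TimTec NDL-3000 natural derivative library, whose compounds are identified by TimTec catalogue codes (ST...).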

| SMILES | cell viability |
| --- | --- |
| COc1cc(C(=O)NC(C(=O)O)C(C)C)cc(OC)c1OC (centres undefined) | 103% |
| COc1cc(C(O)C(=O)O)ccc1O (centres undefined) | 102% |
| Cc1nc2c(nc(SCC(=O)Nc3cccc(F)c3)n2C)c(=O)[nH]1 | 98.5% |
| CCN(C(=O)CSc1nc2c(=O)[nH]cnc2n1-c1ccccc1)c1ccccc1 | 94.7% |
| Cc1nc2c(nc(SCc3nc(-c4ccccc4)oc3C)n2C)c(=O)[nH]1 | 97.8% |
| O=c1ccoc2ccccc12 | 93.1% |
| COC(=O)c1ccccc1SCc1c(OC)c(OC)c(OC)c2c1C(=O)OC2 | 110% |
| COc1cc(C(=O)Nc2cccc3cccnc23)c(Br)c(OC)c1OC | 100% |
| N#Cc1cc2ccccc2oc1=O | 99.8% |
| Cc1ccc(N=Cc2c(O)c3ccccc3oc2=O)c(C)c1 | 99.6% |
| O=C(O)C1C2CC3C(OC(=O)C31)C2Cl (centres undefined) | 98.3% |
| CCn1c(SCC(=O)Nc2ccc(C)cc2C)nc2c(=O)[nH]cnc21 | 106% |
| COc1ccc(/C=C/C(=O)C2CC2)cc1COc1ccc([N+](=O)[O-])cc1 | 95.1% |
| Cc1ccc(-n2c(SCc3ccc(F)cc3)nc3c(=O)[nH]cnc32)cc1 | 105% |
| COc1cc2c(cc1OC)C(CC(C)C)=NCC2 | 82.3% |
| COc1ccc(C2c3[nH]c4ccccc4c3CCN2Cc2ccc(F)cc2)cc1 (centres undefined) | 82.7% |
| COc1cc(OC)cc(C(=O)Nc2ccc3oc(-c4ccccc4Cl)nc3c2)c1 | 94.3% |
| CCOC(=O)c1ccc(NC(=S)NC2OC(COC(C)=O)C(OC(C)=O)C(OC(C)=O)C2OC(C)=O)cc1 (centres undefined) | 106% |
| CCOC(=O)c1c(Cn2cnnn2)n(-c2ccccc2)c2cc(Br)c(OC)cc12 | 80.7% |
| O=c1c(O)c(-c2cccnc2)oc2ccc(Cl)cc12 | 94.7% |
| O=C(CSc1nc2c(=O)[nH]cnc2n1CC1CCCO1)Nc1ccc(F)c(Cl)c1 (centres undefined) | 97.3% |
| COC(=O)c1ccc2c(c1)C(=O)/C(=C\c1ccc(OCCC(C)C)c(OC)c1)O2 | 95.6% |
| COC(=O)C1=C(C)NC2=C(C(=O)CC(C)(C)C2)C1c1cccc(Br)c1 (centres undefined) | 109% |
| CCOc1ccccc1C1CCCC2(O)CCN(CC(=O)NCc3ccco3)CC12 (centres undefined) | 99.5% |
| Cc1ccc(C)c(N2CCN(Cc3cc(=O)oc4cc(C)cc(C)c34)CC2)c1 | 107% |

| SMILES | cell viability |
| --- | --- |
| O=C(Cn1c(=O)cc(C(=O)N2CCCCC2)c2ccccc21)Nc1ccccc1Cl | 89.4% |
| COc1ccc(-c2c(-c3ccccc3)c3ccc(O)cc3oc2=O)cc1 | 93.5% |
| C=C1C(=O)OC2CC3(C)C(O)CC(O)C(=C)C3CC12 (centres undefined) | 98.3% |
| COc1cc(/C=C2\C(=O)N(CCc3ccccc3)C(=O)c3ccccc32)cc(OC)c1OC | 98.6% |
| Nc1nc2ncc(=O)[nH]c2c(=O)[nH]1 | 106% |
| O=C(CSc1nc2ccccc2c(=O)[nH]1)Nc1cc(F)ccc1F | 103% |
| Cc1[nH]c(=O)[nH]c(=O)c1Br | 98% |
| Cc1ccc(NC(=O)CSc2nc3ncnc(N)c3[nH]2)cc1 | 99.3% |
| COCCOC(=O)c1c(C)n(CCCNc2ccc([N+](=O)[O-])cc2)c2c1cc(O)c1ccccc12 | 94.9% |
| Cc1ccc(OCCn2c(=S)[nH]c3c(N)ncnc32)cc1 | 98.6% |
| COc1ccc(C(=O)Nc2ccc(OCc3ccccc3)cc2)cc1OC | 97.4% |
| COC(=O)C(c1cc(OC)c(O)c(OC)c1)(N1CCNC(C)C1)C(F)(F)F (centres undefined) | 106% |
| COc1ccc(OC)c(C(=O)CC2OC(=O)c3c2ccc(OC)c3OC)c1 (centres undefined) | 104% |
| Cc1ccc2cc3c(nc2c1)-c1ccccc1C3=O | 82.9% |
| COC(C)(C)CCCC(C)(O)C#CC(C)N1CCCCC1c1cccnc1 (centres undefined) | 95.5% |
| Cc1ccc(NC(=O)c2cc3ccccc3oc2=N)cc1 | 87.9% |
| COc1cc(OC)cc(C(=O)Nc2nnc(CC(C)(C)C)s2)c1 | 79.7% |
| CCOC(=O)c1c(C)n(CCCNc2ccc([N+](=O)[O-])cc2Cl)c2ccc(O)cc12 | 94.2% |
| CCOc1cc(C2C(C(=O)OCCSCC)=C(C)NC3=C2C(=O)CC(c2ccc(Cl)cc2)C3)ccc1O (centres undefined) | 101% |
| COc1ccc2c(c1)c(CC(=O)NC(c1ccccc1)c1ccc(Br)cc1)c(C)n2C(=O)c1ccc(Cl)cc1 (centres undefined) | 85% |
| Cc1cc(C)c2oc(-c3ccccc3C(=O)O)cc(=O)c2c1 | 88.6% |
| O=C(Cn1c(=O)cc(C(=O)NCc2ccccc2)c2ccccc21)Nc1ccc(F)c(Cl)c1 | 89.3% |
| COc1ccc(CCNC(=O)CCc2ccccc2O)cc1OC | 98.8% |
| Cn1c2c(c(=O)n(C)c1=O)C(c1cccc(F)c1)C(C#N)=C(N)O2 (centres undefined) | 104% |
| COc1ccc(/C=C2\Oc3cc(O)ccc3C2=O)cc1 | 95.9% |

Some values from above.
For cell viability, COC(C)(C)CCCC(C)(O)C#CC(C)N1CCCCC1c1cccnc1 (centres undefined) shows 95.5%
For cell viability, COc1ccc(-c2c(-c3ccccc3)c3ccc(O)cc3oc2=O)cc1 shows 93.5%
For cell viability, COc1ccc(CCNC(=O)CCc2ccccc2O)cc1OC shows 98.8%

The results go on:

| SMILES | cell viability |
| --- | --- |
| COc1cc(C2NC(=O)N(C)C(C)=C2C(=O)OCCc2ccccc2)cc(Br)c1O (centres undefined) | 107% |
| Cc1[nH]c2ccccc2c1CCNC(=O)c1ccc(F)cc1 | 90% |
| O=C(Nc1nc2c(ncn2C2OC(CO)C(O)C2O)c(=O)[nH]1)C(Cc1ccccc1)N1C(=O)c2ccccc2C1=O (centres undefined) | 89.9% |
| Cc1[nH]c2ccccc2c1CCNC(=O)c1ccc(Cl)cc1Cl | 95.3% |
| CCOC(=O)c1ccc2[nH]c(=O)c(C)c(O)c2c1 | 108% |
| COc1cc(C(=O)Nc2ccccc2Cl)cc(OC)c1OC | 105% |
| COc1cc(OC)c2c(c1)C(=O)NN1C(=O)OC(C)(C)C21C (centres undefined) | 98.2% |
| COc1ccccc1C(=O)OCC1CCCN2CCCCC12 (centres undefined) | 97.9% |
| CC(C)OC(=O)c1ccc2c(c1)OCCOCCOc1ccc(C(=O)OC(C)C)cc1OCCOCCO2 | 101% |
| Nc1ccn(C2OC(CO)C3OP(=O)(O)OC32)c(=O)n1 (centres undefined) | 94.8% |
| COC(=O)c1ccc(CSc2nc3c(=O)[nH]c(C)nc3n2C)cc1 | 95.8% |
| CC(C)Oc1ccccc1C1Nc2ccccc2NC2=C1C(=O)CC(c1ccccc1Cl)C2 (centres undefined) | 108% |
| CN(c1ccc(OCc2cc(=O)[nH]c3ccccc23)cc1)S(C)(=O)=O | 90.8% |
| COc1cc(OC)cc(C(=O)Nc2nnc(CC(C)C)s2)c1 | 85.9% |
| COc1ccc(C(=O)NC2CCC(CC3CCC(NC(=O)c4ccc(OC)c(OC)c4)CC3)CC2)cc1OC (centres undefined) | 102% |
| CC(=O)OC1CCC2(C)C(CCC3(C)C2C(=O)C=C2C4CC(C)(C(=O)Nc5cccc([N+](=O)[O-])c5)CCC4(C)CCC23C)C1(C)C (centres undefined) | 103% |
| Cn1c(=O)c2c(nc(Br)n2CC(=O)O)n(C)c1=O | 103% |
| Cc1ccc(NC(=O)CSc2nc(C)cc(=O)[nH]2)cc1 | 103% |
| COc1cc(C(=O)CCNc2ccc(I)cc2)cc(OC)c1OC | 91.4% |
| COc1ccc(-c2coc3cc(OC4OC(COC(C)=O)C(OC(C)=O)C(OC(C)=O)C4OC(C)=O)cc(OC(C)=O)c3c2=O)cc1 (centres undefined) | 90.2% |
| Cc1ccc(C)c(NC(=O)Cn2c(=O)cc(C(=O)N3CCc4ccccc4C3)c3ccccc32)c1 | 100% |
| O=C(O)CCC(=O)N1N=C(c2c(-c3ccccc3)c3cc(Cl)ccc3[nH]c2=O)CC1c1cccc([N+](=O)[O-])c1 (centres undefined) | 95.7% |
| COc1ccc(CC(=O)NCCc2c(C)[nH]c3ccccc23)cc1 | 99.3% |
| O=c1oc2ccccc2cc1-c1cccc(Cl)c1 | 93.4% |
